This is an account of results in PubChem BioAssay AID1487 (National Center for Advancing Translational Sciences (NCATS), 2009).

The nature of this experiment: qHTS Assay for Modulators of Lamin A Splicing. Conditions: HeLa LMNA splicing GFP/RFP minigene ratio, 48 h. In short, it runs like this: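 S3 HeLa cells stably expressing lamin A-EGFP splicing minigene plus DsRed2, 600 cells/well, 48 h compound exposure at 37C. Laser-scanning cytometry; analysed as GFP (500-530 nm)/RFP (575-640 nm) total intensity ratio; 0.5% DMSO vehicle.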
A general note: Quantitative high-throughput screening tests each substance at several concentrations.

The mark [1] stands for this setting: measured here: RFP viability control channel.
Where [2] appears, read: measured here: GFP splicing reporter channel.

The other results are listed elsewhere or left out. These are further read-outs of the screen, such as a control signal, another cell line or another target. No call is given for them. The list favours compounds with an active or inconclusive main result. The note in brackets gives the kind of curve behind each potency; many fits are weak.

What is called AC50 is the concentration giving half of the maximal activity seen. Regarding `CN(C/C=C/C#CC(C)(C)C)Cc1cccc2ccccc12`, under setting [1], the AC50 was 0.0158 µM [falling, full curve, poor fit].
For `Oc1ccc(-c2n[nH]c(=S)n2-c2ccc3c(c2)OCCO3)c(O)c1`, the AC50 under setting [1] is 3.98 µM [rising, full curve].
Still for that read-out and setting: for `OC(CN1C2=NCCCN2c2ccccc21)c1ccc2c(c1)OCO2` (configuration not stated) the value was 7.08 µM [rising, partial curve].
Consider `CCCOc1cccc(C(=O)Nc2cccc3cccnc23)c1`, for which the AC50 under setting [2] is 35.5 µM [falling, single point].
With `CCC(C)(C)n1nnnc1CN1CCN(c2nc3ccc(C)cc3cc2C#N)CC1`, the concentration at half-maximal activity (AC50) under setting [1] was 20 µM [rising, single point].
In the case of `O=C(/C=C/c1ccccc1[N+](=O)[O-])c1ccccc1Br`, the AC50 under setting [1] is 11.2 µM [rising, partial curve].
On the same count and under the same terms, the figure for `Cc1occc1C(=O)NNC(=O)Nc1ccc(Cl)c(Cl)c1` is 12.6 µM [rising, partial curve].
In the case of `CC(C)OCCCNC(=O)c1ccc(CSc2nc3cccnc3n2Cc2ccccc2)cc1`, the concentration at half-maximal activity (AC50) under setting [2] was 0.398 µM [falling, full curve, poor fit].
For the compound `CC(C)(c1ccccc1)c1ccc(OCCn2cnc3ccccc3c2=O)cc1`, the AC50 reads like this: under setting [2], 10 µM [rising, single point]; under setting [1], 31.6 µM [rising, single point].
Take `O=c1[nH]cnc2c1ncn2[C@H]1CC[C@@H](CO)O1`: the AC50 under setting [2] was 0.0398 µM [falling, full curve, poor fit] and the half-maximal activity concentration (AC50) under setting [1] is 12.6 µM [falling, single point].
Turning to `CC(=O)N1CCN(c2ccc(NCc3ccc(C(C)C)cc3)cc2)CC1`, the AC50 under setting [1] is 17.8 µM [rising, partial curve, poor fit].
For `COc1cc2[nH]c(=S)nc(NCCC(C)C)c2cc1OC`, under setting [2], the AC50 is 0.00447 µM [falling, full curve, poor fit].
Turning to `COCCCn1c(C)csc1=Nc1cccnc1`, under setting [2], the half-maximal activity concentration (AC50) is 35.5 µM [rising, single point].
For `O=C(CCC(=O)N1CC2CCCN2c2ccccc21)NCc1ccc(Cl)cc1` (configuration not stated), the AC50 under setting [1] is 0.00316 µM [falling, full curve, poor fit].
`CC(C)Sc1ccc([N+](=O)[O-])cc1C(=O)Nc1ccncc1`: the AC50 under setting [2] was 11.2 µM [falling, partial curve, poor fit].
For `COc1ccc2cnn(-c3ccccc3C)c(=O)c2c1OC`, under setting [1], the AC50 was 35.5 µM [rising, single point].
With `COc1ccccc1-c1cc(C(=O)N2CCN(c3ccccc3OC)CC2)no1`, the AC50 runs as follows: under setting [2], 35.5 µM [falling, single point]; under setting [1], 22.4 µM [falling, single point].
Take `CCOC(=O)N1CCN(C(=S)Nc2ccccc2C)CC1`: under setting [1], the AC50 is 12.6 µM [rising, partial curve, poor fit].
The same measure, in the same setting: for `CCCC(C)NC(=O)c1cccc(Oc2ccccc2)c1` (configuration not stated) the value was 7.94 µM [rising, full curve, poor fit].
Regarding `CC(=O)C1=C(O)C(=O)N(c2nccs2)C1c1ccc(F)cc1` (configuration not stated), the AC50 is 31.6 µM [rising, single point] under setting [2] and 35.5 µM [rising, single point] under setting [1].
As to `FC(F)(F)C1=CC(c2ccc(Cl)cc2)=NCCN1`, the AC50 under setting [2] was 2.51 µM [rising, full curve, poor fit] and the AC50 under setting [1] was 2.82 µM [rising, single point].
For the compound `COc1ccc(-c2noc(N3CCC(C(=O)N4CCN(c5cccc(C)c5C)CC4)CC3)n2)cc1`, the AC50 under setting [2] was 11.2 µM [falling, partial curve].
For `CC(OC(=O)c1ccccc1Nc1ccc(SC(F)F)cc1)C(N)=O` (configuration not stated), under setting [2], the AC50 is 10 µM [rising, partial curve, poor fit].
Turning to `COc1cc([N+](=O)[O-])ccc1NC(=O)COC(=O)c1n[nH]c2ccccc12`, the AC50 under setting [2] is 10 µM [rising, partial curve] and the AC50 under setting [1] is 10 µM [rising, partial curve].
For `COc1ccccc1CNc1ncnc2ccc(-c3ccc(C(=O)N(C)C)cc3)cc12`, the AC50 under setting [2] was 22.4 µM [falling, partial curve, poor fit].
As to `Cn1c(NCc2ccccc2)nc2c1c(=O)n(Cc1ccc(Br)cc1)c(=O)n2C`, under setting [1], the AC50 is 25.1 µM [rising, single point].
Same read-out and setting: the figure for `CCOC(=O)N1CCC(NS(=O)(=O)c2ccc3c(c2)CCN3C(C)=O)CC1` is 11.2 µM [rising, partial curve].
As to `O=C(Nc1sc2c(c1-c1nc3ccccc3[nH]1)CCCC2)C1CC1`, the AC50 under setting [2] is 3.98 µM [rising, single point].
Take `N/C(=N\OC(=O)Cc1ccc(Cl)cc1)c1ccncc1`: under setting [1], the AC50 was 10 µM [rising, partial curve, poor fit].
On to `O=C(NCc1cccs1)c1ccc(CSc2nc3cccnc3n2Cc2ccccc2F)cc1`, for which the AC50 by setting is: under setting [2], 35.5 µM [falling, partial curve]; under setting [1], 28.2 µM [falling, partial curve].
`CCCCOc1ccccc1CC1C(=O)Nc2ccc(Br)cc21` (configuration not stated): the AC50 under setting [2] was 35.5 µM [falling, single point] and the AC50 under setting [1] is 35.5 µM [falling, partial curve].
On to `O=[N+]([O-])c1cc(S(=O)(=O)C(F)(F)F)ccc1N1CCN(c2ccccc2)CC1`, for which the AC50 under setting [1] was 35.5 µM [rising, single point].
As for `OCCNc1ncnc2ccc(Br)cc12`, the AC50 was 35.5 µM [rising, single point] under setting [2] and 31.6 µM [rising, single point] under setting [1].
In the case of `CC(=O)NC(Cc1ccc(F)c(F)c1)C(=O)NC1CCN(C(=O)c2ccc(C)cc2)CC1` (configuration not stated), under setting [1], the AC50 is 0.0251 µM [falling, full curve, poor fit].
With `c1ccc(CNc2nc(-c3cccs3)nc3ccccc23)cc1`, the AC50 under setting [1] is 20 µM [rising, single point].
As to `O=C(O)C1CC=CCC1C(=O)N1CCN(c2nc(-c3ccccc3Cl)c3cc(Br)ccc3n2)CC1` (configuration not stated), the AC50 is, setting by setting: under setting [2], 35.5 µM [falling, single point]; under setting [1], 7.94 µM [falling, partial curve, poor fit].
On to `CC1CCCCN1C(=O)c1ccc(S(=O)(=O)N2CCCCC2C)cc1` (configuration not stated), for which the half-maximal activity concentration (AC50) under setting [2] is 20 µM [rising, single point] and the AC50 under setting [1] was 12.6 µM [rising, single point].
As for `Cc1cc(C)c(NC(=O)Cn2cnc3c(oc4ccccc43)c2=O)c(C)c1`, the AC50 is, setting by setting: under setting [2], 35.5 µM [rising, partial curve]; under setting [1], 35.5 µM [rising, single point].
Take `Clc1ccc(Cn2c(/C=C/c3ccco3)nc3ccccc32)cc1`: the AC50 under setting [2] was 15.8 µM [rising, partial curve] and the AC50 under setting [1] is 15.8 µM [rising, single point].
With `CSc1ccccc1NC(=O)COc1ccc(Cl)cc1`, the AC50 under setting [1] was 35.5 µM [rising, single point].
Still for that read-out and setting: the figure for `O=C(Nc1ccc(C(F)(F)F)cc1)c1cc(-c2cccnc2)nc2ccc(Br)cc12` is 17.8 µM [falling, partial curve, poor fit]; for `Oc1ccc(CNc2ccccc2F)c2cccnc12` it is 14.1 µM [rising, single point].
In the case of `COc1ccc(N2CCN(c3oc(COc4ccccc4Cl)nc3C#N)CC2)cc1`, the AC50 was 17.8 µM [rising, single point] under setting [2] and 35.5 µM [rising, single point] under setting [1].
For `Cc1ccc2nc(SCc3nc4c(cnn4-c4ccccc4)c(=O)[nH]3)[nH]c2c1`, the half-maximal activity concentration (AC50) under setting [1] was 35.5 µM [falling, partial curve].
Still for that read-out and setting: the figure for `CCOC(=O)c1cnc(-n2nc(C)cc2C)nc1NNc1cc(-c2ccccc2)nc(C)n1` is 5.62 µM [rising, single point].
Take `CC(Oc1ccc(Br)cc1Br)C(=O)NC1CCCC1` (configuration not stated): under setting [2], the concentration at half-maximal activity (AC50) was 3.98 µM [falling, single point].
On to `CCOc1ccc2nc(NCCNC(=O)C3CC3)c(C)cc2c1`, for which the AC50 by setting is: under setting [2], 11.2 µM [rising, partial curve]; under setting [1], 3.55 µM [rising, partial curve, poor fit].
As to `COc1ccc(NC(=O)C2C(=O)NC3(C)CC2c2ccccc2O3)cc1` (configuration not stated), the AC50 under setting [1] is 31.6 µM [rising, single point].
`O=C(NC1CCCC1)c1sc(=S)n2c1[nH]c(=O)c1ccccc12`: the AC50 under setting [1] is 7.08 µM [rising, partial curve].
Same read-out and setting: for `COc1ccc(NC(=O)c2ccc(-n3c(C)ccc3C)cc2)c(OC)c1` the value was 0.501 µM [rising, full curve, poor fit].
Take `Cc1ccc(C(CC(=O)O)Nc2nc(N3CCCCC3)nc(N3CCCCC3)n2)cc1` (configuration not stated): the AC50 under setting [2] was 11.2 µM [rising, single point] and the AC50 under setting [1] was 20 µM [rising, single point].
As to `CCCc1cc(C(=O)N/N=C/c2ccc(CC)s2)c2ccccc2n1`, the AC50 is 5.01 µM [falling, full curve, poor fit] under setting [2] and 7.08 µM [falling, partial curve] under setting [1].
Consider `NC(CO)C(=O)NNCc1ccc(O)c(O)c1O` (configuration not stated), for which the AC50 by setting is: under setting [2], 22.4 µM [falling, partial curve, poor fit]; under setting [1], 3.16 µM [falling, single point].
For the compound `CCCCCCCCCCC(CO)CCCCCCCC` (configuration not stated), the AC50 under setting [1] was 0.0251 µM [rising, full curve, poor fit].
`CCOc1cc(/C=C2/NC(=O)NC2=O)cc([N+](=O)[O-])c1O`: under setting [2], the AC50 is 0.0891 µM [falling, full curve, poor fit].
In the case of `N#Cc1cc2sc3nnc(-c4ccncc4)n3c2cc1C#N`, the AC50 under setting [1] is 35.5 µM [rising, single point].
Take `COc1cccc(-n2cnc3sc4c(c3c2=O)CCC4)c1`: the AC50 runs as follows: under setting [2], 0.0158 µM [falling, full curve]; under setting [1], 0.0112 µM [falling, full curve].
On to `CCOC(=O)c1c(-c2ccccc2)csc1NC(=S)NC`, for which the AC50 under setting [1] was 15.8 µM [rising, partial curve, poor fit].
